Data from article PMC9723177.

Sequences of proteins named here, by UniProt entry; tags and fusion partners are left off.
UniProt P11940: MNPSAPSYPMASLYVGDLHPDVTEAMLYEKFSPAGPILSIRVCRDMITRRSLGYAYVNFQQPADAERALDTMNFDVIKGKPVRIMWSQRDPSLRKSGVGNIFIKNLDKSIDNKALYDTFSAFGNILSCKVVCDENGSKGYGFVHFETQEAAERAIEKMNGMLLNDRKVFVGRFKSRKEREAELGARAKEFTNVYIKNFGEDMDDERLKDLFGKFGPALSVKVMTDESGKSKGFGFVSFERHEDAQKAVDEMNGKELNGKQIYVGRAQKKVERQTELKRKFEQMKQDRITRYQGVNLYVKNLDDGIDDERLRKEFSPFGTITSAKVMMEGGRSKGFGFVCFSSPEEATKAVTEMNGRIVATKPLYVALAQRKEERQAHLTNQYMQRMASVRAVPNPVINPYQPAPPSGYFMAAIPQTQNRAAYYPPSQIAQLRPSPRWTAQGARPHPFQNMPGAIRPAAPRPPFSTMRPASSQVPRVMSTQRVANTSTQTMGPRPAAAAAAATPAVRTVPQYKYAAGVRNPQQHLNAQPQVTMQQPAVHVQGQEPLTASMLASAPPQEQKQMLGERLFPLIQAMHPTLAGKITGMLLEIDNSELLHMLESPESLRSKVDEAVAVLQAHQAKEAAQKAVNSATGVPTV
UniProt Q9UHB6: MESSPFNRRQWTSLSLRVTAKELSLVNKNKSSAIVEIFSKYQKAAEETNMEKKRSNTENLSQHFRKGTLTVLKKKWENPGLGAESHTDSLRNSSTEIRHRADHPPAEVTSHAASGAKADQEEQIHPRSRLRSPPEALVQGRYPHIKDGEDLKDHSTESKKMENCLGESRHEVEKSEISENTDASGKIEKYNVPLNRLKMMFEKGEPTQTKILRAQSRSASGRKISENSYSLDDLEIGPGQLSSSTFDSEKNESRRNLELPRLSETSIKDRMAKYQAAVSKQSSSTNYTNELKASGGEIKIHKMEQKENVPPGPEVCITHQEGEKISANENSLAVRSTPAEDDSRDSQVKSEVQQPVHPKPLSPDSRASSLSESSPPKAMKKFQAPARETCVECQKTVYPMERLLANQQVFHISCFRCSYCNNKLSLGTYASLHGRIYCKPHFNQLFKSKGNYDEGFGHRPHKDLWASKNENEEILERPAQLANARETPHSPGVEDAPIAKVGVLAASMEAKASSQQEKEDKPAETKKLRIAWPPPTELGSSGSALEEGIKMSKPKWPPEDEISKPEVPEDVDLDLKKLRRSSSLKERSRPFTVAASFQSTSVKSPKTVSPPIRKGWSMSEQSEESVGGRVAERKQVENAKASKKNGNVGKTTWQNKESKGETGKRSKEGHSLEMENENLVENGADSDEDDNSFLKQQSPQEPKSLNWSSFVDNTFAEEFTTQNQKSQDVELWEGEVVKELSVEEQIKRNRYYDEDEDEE

Biological target: T1, STAM-binding protein (STAMBP) (human (endogenous in MDA-MB-231 and BT549)) (UniProt O95630)
T1 sequence: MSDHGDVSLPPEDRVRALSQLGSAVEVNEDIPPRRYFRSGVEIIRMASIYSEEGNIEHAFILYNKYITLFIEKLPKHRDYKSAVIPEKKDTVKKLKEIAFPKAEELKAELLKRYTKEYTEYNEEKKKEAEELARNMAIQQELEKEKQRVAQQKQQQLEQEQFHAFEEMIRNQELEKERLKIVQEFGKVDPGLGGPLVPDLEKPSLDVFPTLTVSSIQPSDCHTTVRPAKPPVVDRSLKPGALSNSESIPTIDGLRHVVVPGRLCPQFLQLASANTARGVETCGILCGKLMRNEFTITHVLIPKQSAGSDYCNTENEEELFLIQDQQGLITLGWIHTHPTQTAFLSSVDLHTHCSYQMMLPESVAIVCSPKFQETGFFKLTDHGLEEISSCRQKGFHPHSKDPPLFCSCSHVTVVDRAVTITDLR
Assay: affinity purification with mass spectrometry; MDA-MB-231 cell lysates incubated with beads conjugated with anti-STAMBP antibodies; immunoprecipitates analyzed by mass spectrometry

| Substance | binding |
| --- | --- |
| PABPC1 (from UniProt P11940 1-636) | binds |
| LIMA1 (from UniProt Q9UHB6 1-759) | binds |

These are yes or no findings as the source states them, for the method shown. Binding seen in cells or lysates may run through a third protein. These calls come from enrichment with a bait or labelling near it, and not all partners need be listed. Where a sequence is shown, tags or fusion partners need not be part of it.
